{"source": "PubChem BioAssay AID493036", "about": "(Sanford-Burnham Center for Chemical Genomics, 2011)", "note": "The list shows a part of the results."}
{"assay": "agonists of NTR1, primary screen, imaging, U2OS cells, beta-arrestin-GFP, high content (AID 493036) (AID 493036)", "details": "NTR1-U2OS beta-arrestin-GFP spot imaging, agonist mode; measured here: cell count, cytotoxicity flag; at 20 µM", "units": {"cell count": "cells"}}
{"smiles": "CP(=O)(Nc1ccc2c(c1)OCCO2)Oc1ccccc1", "note": "(stereo not given)", "cell count": 50}
{"smiles": "CC(C)(C)C(=O)NC(Sc1ncccn1)C(Cl)(Cl)Cl", "note": "(stereo not given)", "cell count": 62}
{"smiles": "Clc1n[nH]nc1-c1nn[nH][15n]1", "cell count": 76}
{"smiles": "CCOP(=O)(NC(=NC(C)c1ccccc1)NC(C)c1ccccc1)OCC", "note": "(stereo not given)", "cell count": 63}
{"smiles": "O=[N+]([O-])c1cc([N+](=O)[O-])c(-n2nnc3ccccc32)c([N+](=O)[O-])c1", "cell count": 30}
{"smiles": "O=P1(Nc2ccccn2)COc2ccccc2OC1", "cell count": 68}
{"smiles": "CCC1=CC2Cc3nc4ccc(Cl)cc4c(N)c3C(C1)C2", "note": "(stereo not given)", "cell count": 49}
{"smiles": "CN(CCCl)Cc1cc(Cl)c(NC2=NCCN2)c(Cl)c1", "cell count": 59}
{"smiles": "CCOP(=O)(Nc1ccc(C)cn1)OCC", "cell count": 59}
{"smiles": "CC(C)/C=N\\N=C(\\N)N[N+](=O)[O-]", "cell count": 45}
{"smiles": "CN(C(=O)Cc1ccc(Cl)c(Cl)c1)[C@@H]1CCCC[C@H]1N1CCCC1", "cell count": 66}
{"smiles": "CC1(CBr)Cn2c(nc3ccccc3c2=O)S1", "note": "(stereo not given)", "cell count": 31}
{"smiles": "Cc1nc2ccc3ccccc3c2s1.O=[N+]([O-])c1cc([N+](=O)[O-])c(O)c([N+](=O)[O-])c1", "cell count": 44}
{"smiles": "O=[As](O)(c1ccccc1Br)c1ccccc1Br", "cell count": 80}
{"smiles": "O=[N+]([O-])c1cc([N+](=O)[O-])c(-c2cnn(-c3ccccc3)c2)c([N+](=O)[O-])c1", "cell count": 50}
{"smiles": "COc1ccccc1CNC(=O)COC(=O)C(O)(c1ccccc1)c1ccccc1", "cell count": 93}
{"smiles": "CCOC(=O)C(CC)C1=NC(C)(C)Cc2ccccc21.O=[N+]([O-])c1cc([N+](=O)[O-])c(O)c([N+](=O)[O-])c1", "note": "(stereo not given)", "cell count": 49}
{"smiles": "O=[N+]([O-])c1cc([N+](=O)[O-])c(Nc2nnnn2CCO)c([N+](=O)[O-])c1", "cell count": 56}
{"smiles": "CN(C)C1(CNC(=O)c2ccc(S(C)(=O)=O)cc2)CCCCC1", "cell count": 67}
{"smiles": "CC1=C2N=C(C=C3N=C(C(C)=C4[N-][C@@](C)([C@@H]5N=C1[C@](C)(CCC(=O)NC[C@@H](C)OP(=O)([O-])O[C@H]1[C@@H](O)[C@@H](n6cnc7cc(C)c(C)cc76)O[C@@H]1CO)[C@H]5CC(N)=O)[C@@](C)(CC(N)=O)[C@@H]4CCC(N)=O)[C@@](C)(CC(N)=O)[C@@H]3CCC(N)=O)C(C)(C)[C@@H]2CCC(N)=O.[C-]#N.[Co+3]", "cell count": 65}
{"smiles": "O=C(/C=C/c1ccccc1)OC1CN2CCC1CC2", "note": "(stereo not given)", "cell count": 57}
{"smiles": "CC1CCC(C(C)C)C(OP(=O)(Nc2ccccn2)c2ccccc2)C1", "note": "(stereo not given)", "cell count": 34}
{"smiles": "Cc1ccc(C(=O)OC2CN3CCC2CC3)cc1", "note": "(stereo not given)", "cell count": 87}
{"smiles": "Cc1nn(-c2ccccc2)c2c1P(=O)(N1CCOCC1)N(C)C(c1ccccc1)=N2", "note": "(stereo not given)", "cell count": 58}
{"smiles": "COc1cc(C2NCCC3(OCCO3)C2(C)C)cc(OC)c1OC.O=[N+]([O-])c1cc([N+](=O)[O-])c(O)c([N+](=O)[O-])c1", "note": "(stereo not given)", "cell count": 68}
{"smiles": "CP(=O)(Nc1ccc(SC(F)(F)F)cc1)Oc1ccccc1", "note": "(stereo not given)", "cell count": 53}
{"smiles": "Nc1cccc([As](=O)(O)c2ccccc2)c1", "cell count": 58}
{"smiles": "CCCOc1ccc(NP(C)(=O)Oc2ccc(Cl)cc2)cc1", "note": "(stereo not given)", "cell count": 29}
{"smiles": "O=P1(Nc2ccc(Br)cn2)COc2ccccc2OC1", "cell count": 79}
{"smiles": "NS(=O)(=O)c1cccc(NC(=O)COC(=O)C(O)(c2ccccc2)c2ccccc2)c1", "cell count": 71}
{"smiles": "Cc1ccc(OCC(=O)OC2CN3CCC2CC3)cc1", "note": "(stereo not given)", "cell count": 62}
{"smiles": "O=[As](O)(c1cccs1)c1cccs1", "cell count": 94}
{"smiles": "O=P1(Nc2ncccn2)COc2ccccc2OC1", "cell count": 73}
{"smiles": "COc1ccccc1OP(C)(=O)Nc1c(C)cccc1C", "note": "(stereo not given)", "cell count": 78}
{"smiles": "CN1CCCCC1COC(=O)C1(O)c2ccccc2CCc2ccccc21", "note": "(stereo not given)", "cell count": 61}
{"smiles": "Nc1ccccc1[As](=O)(O)c1ccccc1", "cell count": 52}
{"smiles": "O=C(O)COc1ccc([As](=O)(O)O)cc1[N+](=O)[O-]", "cell count": 51}
{"smiles": "O=P(Nc1nccs1)(c1ccccc1)c1nc2ccccc2s1", "note": "(stereo not given)", "cell count": 39}
{"smiles": "O=P(Nc1nccs1)(Oc1ccccc1)Oc1ccccc1", "cell count": 94}
{"smiles": "CCOP1(=S)c2c(C)nn(CCC#N)c2N=C(c2ccccc2F)N1C", "note": "(stereo not given)", "cell count": 49}
{"smiles": "O=C(O)c1cccc(Nc2c([N+](=O)[O-])cc([N+](=O)[O-])cc2[N+](=O)[O-])c1", "cell count": 51}
{"smiles": "CS(=O)(=O)c1cc([N+](=O)[O-])c2no[n+]([O-])c2c1", "cell count": 46}
{"smiles": "CN(C(=O)Cc1ccccc1)[C@@H]1CC[C@]2(CCCO2)C[C@H]1N1CCCC1", "cell count": 59}
{"smiles": "CCOP1(=S)c2c(C)nn(CCC#N)c2N=C(c2ccc(F)cc2)N1C", "note": "(stereo not given)", "cell count": 39}
{"smiles": "N#CCCN(C(=O)COC(=O)C(O)(c1ccccc1)c1ccccc1)c1ccc(F)cc1", "cell count": 54}
{"smiles": "CN(C(=O)Cc1ccc(Cl)c(Cl)c1)[C@H]1CC[C@@]2(CCCO2)C[C@@H]1N1CCCC1", "cell count": 57}
{"smiles": "CC1=NCCc2c1[nH]c1ccccc21.O=[N+]([O-])c1cc([N+](=O)[O-])c(O)c([N+](=O)[O-])c1", "cell count": 41}
{"smiles": "CN(C)C(=O)c1cc([N+](=O)[O-])cc2c1-c1c(cc([N+](=O)[O-])cc1[N+](=O)[O-])C2=O", "cell count": 36}
{"smiles": "O=[N+]([O-])c1ccc2c(c1)nnn2O", "cell count": 57}
{"smiles": "NC(=O)Nc1ccc([As](=O)(O)O)cc1", "cell count": 101}
{"smiles": "Cc1cc(C)cc(OP(C)(=O)Nc2ccc(C)cc2C)c1", "note": "(stereo not given)", "cell count": 45}
{"smiles": "O=[As](O)(c1cccc(O)c1)c1cccc(O)c1", "cell count": 72}
{"smiles": "Cc1cccc(OCC(=O)OC2CN3CCC2CC3)c1", "note": "(stereo not given)", "cell count": 72}
{"smiles": "CCOC(=O)c1ccc(NP(C)(=O)Oc2cc(C)cc(C)c2)cc1", "note": "(stereo not given)", "cell count": 69}
{"smiles": "O=C(OC1CN2CCC1CC2)c1ccc(Cl)cc1", "note": "(stereo not given)", "cell count": 58}
{"smiles": "COc1ccccc1OP(C)(=O)Nc1cccc(Br)c1", "note": "(stereo not given)", "cell count": 73}
{"smiles": "CS(=O)(=O)c1ccc(Cl)c(NC(=O)COC(=O)C(O)(c2ccccc2)c2ccccc2)c1", "cell count": 48}
{"smiles": "COc1cc(C(=O)NCC2(N3CCOCC3)CCCCC2)cc(Cl)c1OC(C)C", "cell count": 45}
{"smiles": "O=[As](O)(O)c1cccnc1", "cell count": 63}
{"smiles": "CCOP(=O)(Nc1cccc2ccccc12)OCC", "cell count": 91}
{"smiles": "Cc1ccc(NCCc2c([N+](=O)[O-])cc([N+](=O)[O-])cc2[N+](=O)[O-])cc1", "cell count": 72}
{"smiles": "CP(=O)(Nc1cccc(Br)c1)Oc1ccccc1", "note": "(stereo not given)", "cell count": 24}
{"smiles": "Cc1cc(C)cc(OP(C)(=O)Nc2ccccn2)c1", "note": "(stereo not given)", "cell count": 60}
{"smiles": "CCCOP(=S)(Nc1nc(N)cc(=O)[nH]1)OCCC", "cell count": 74}
{"smiles": "Cc1ccc(C)c(NP(C)(=O)Oc2ccccc2)c1", "note": "(stereo not given)", "cell count": 61}
